Test results: the supplement of paper PMC10849652
The list shows a part of the results.

Amino acid sequences for entries named in this document (tags omitted). A change or cut given only in a name is not applied to a line headed by its entry.
UniProt Q9NP79: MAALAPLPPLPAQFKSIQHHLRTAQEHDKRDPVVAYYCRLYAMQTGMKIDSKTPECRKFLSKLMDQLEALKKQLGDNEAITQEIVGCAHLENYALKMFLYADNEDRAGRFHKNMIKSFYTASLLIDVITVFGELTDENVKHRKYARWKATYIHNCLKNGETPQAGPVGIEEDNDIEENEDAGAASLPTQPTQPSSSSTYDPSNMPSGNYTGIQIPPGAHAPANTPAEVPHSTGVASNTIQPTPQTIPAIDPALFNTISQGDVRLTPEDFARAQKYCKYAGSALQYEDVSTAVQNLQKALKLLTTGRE
UniProt Q8NEZ2: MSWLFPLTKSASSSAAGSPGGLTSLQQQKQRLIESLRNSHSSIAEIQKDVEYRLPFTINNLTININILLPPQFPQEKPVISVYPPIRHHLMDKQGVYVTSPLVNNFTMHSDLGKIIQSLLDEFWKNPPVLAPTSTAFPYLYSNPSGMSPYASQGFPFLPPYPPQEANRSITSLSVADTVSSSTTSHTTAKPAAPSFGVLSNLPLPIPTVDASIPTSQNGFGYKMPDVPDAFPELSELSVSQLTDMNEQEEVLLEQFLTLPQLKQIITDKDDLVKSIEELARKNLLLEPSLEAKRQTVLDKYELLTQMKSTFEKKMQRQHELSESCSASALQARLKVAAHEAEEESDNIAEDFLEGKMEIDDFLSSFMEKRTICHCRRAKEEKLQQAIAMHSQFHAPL
UniProt Q6RFH5: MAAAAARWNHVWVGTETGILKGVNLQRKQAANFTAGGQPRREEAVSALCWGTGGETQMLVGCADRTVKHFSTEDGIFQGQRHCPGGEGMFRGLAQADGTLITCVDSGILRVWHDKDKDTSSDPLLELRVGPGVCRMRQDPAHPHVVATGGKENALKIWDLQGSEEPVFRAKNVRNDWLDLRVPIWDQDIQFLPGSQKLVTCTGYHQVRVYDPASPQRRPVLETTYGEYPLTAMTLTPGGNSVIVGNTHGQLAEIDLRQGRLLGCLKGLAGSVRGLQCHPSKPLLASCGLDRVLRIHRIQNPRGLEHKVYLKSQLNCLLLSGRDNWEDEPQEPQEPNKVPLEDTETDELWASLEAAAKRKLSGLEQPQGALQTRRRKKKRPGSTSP
UniProt Q7Z5K2: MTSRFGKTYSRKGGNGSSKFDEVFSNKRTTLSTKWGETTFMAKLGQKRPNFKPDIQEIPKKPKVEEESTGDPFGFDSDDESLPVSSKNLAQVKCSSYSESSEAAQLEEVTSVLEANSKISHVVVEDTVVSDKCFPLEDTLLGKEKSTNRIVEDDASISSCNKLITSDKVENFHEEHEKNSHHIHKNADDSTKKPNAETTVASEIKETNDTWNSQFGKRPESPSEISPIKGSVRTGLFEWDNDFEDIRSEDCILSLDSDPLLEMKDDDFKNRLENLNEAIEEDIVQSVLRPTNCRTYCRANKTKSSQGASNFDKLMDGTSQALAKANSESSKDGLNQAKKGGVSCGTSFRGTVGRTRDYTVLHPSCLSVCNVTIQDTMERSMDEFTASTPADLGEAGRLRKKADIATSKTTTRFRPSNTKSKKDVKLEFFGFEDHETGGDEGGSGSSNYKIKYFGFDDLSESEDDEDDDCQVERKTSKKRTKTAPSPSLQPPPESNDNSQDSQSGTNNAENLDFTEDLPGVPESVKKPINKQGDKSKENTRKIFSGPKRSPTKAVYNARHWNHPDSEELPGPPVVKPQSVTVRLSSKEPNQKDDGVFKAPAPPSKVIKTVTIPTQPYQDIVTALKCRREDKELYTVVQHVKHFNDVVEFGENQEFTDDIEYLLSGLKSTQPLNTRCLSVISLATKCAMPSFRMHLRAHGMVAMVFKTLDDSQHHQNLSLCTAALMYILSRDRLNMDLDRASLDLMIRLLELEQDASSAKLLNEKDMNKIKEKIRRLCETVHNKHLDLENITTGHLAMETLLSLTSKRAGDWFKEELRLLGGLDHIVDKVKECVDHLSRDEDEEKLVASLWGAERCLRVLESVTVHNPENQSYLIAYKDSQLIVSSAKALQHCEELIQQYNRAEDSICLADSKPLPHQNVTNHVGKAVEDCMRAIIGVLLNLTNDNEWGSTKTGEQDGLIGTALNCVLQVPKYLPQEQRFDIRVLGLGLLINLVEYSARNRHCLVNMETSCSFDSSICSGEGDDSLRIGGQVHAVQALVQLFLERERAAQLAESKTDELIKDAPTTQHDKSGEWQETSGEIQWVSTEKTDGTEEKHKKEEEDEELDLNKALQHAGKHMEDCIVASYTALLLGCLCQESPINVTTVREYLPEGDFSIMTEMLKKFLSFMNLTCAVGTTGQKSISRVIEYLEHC
UniProt O75083: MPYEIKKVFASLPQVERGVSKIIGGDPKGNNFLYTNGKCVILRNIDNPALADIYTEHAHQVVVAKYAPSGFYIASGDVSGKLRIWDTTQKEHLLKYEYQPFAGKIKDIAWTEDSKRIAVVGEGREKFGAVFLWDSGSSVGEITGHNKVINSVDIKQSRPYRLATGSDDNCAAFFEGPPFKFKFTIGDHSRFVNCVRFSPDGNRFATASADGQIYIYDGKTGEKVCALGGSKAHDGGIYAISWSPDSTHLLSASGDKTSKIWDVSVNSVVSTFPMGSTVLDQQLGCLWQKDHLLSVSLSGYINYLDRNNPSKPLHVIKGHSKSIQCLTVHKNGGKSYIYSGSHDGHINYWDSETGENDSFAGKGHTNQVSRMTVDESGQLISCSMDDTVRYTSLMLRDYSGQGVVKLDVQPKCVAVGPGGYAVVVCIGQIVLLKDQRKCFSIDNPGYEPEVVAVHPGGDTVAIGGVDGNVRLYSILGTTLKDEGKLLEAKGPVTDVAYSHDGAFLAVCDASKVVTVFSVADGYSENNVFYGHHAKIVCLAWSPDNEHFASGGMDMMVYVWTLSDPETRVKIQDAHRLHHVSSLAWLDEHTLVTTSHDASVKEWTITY
UniProt Q6VEQ5: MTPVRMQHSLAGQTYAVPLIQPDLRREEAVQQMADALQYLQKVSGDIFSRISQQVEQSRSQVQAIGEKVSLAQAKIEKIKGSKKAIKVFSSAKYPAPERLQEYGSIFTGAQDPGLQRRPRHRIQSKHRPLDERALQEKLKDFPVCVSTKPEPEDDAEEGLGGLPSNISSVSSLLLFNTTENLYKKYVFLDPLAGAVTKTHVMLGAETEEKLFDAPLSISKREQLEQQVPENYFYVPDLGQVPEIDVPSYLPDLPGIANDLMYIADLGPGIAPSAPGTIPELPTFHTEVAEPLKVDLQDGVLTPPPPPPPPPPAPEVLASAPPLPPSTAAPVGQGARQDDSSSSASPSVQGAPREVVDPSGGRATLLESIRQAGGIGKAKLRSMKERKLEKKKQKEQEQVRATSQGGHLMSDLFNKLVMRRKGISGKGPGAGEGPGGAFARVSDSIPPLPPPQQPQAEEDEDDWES
UniProt P23025: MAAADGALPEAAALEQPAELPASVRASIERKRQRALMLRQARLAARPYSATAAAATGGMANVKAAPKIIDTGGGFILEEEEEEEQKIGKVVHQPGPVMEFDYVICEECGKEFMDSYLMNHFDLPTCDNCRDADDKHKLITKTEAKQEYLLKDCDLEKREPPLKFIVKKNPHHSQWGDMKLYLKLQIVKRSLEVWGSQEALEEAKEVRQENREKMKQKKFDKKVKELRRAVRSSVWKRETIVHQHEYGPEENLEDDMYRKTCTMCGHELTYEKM
UniProt O75351, whole entry, looked up: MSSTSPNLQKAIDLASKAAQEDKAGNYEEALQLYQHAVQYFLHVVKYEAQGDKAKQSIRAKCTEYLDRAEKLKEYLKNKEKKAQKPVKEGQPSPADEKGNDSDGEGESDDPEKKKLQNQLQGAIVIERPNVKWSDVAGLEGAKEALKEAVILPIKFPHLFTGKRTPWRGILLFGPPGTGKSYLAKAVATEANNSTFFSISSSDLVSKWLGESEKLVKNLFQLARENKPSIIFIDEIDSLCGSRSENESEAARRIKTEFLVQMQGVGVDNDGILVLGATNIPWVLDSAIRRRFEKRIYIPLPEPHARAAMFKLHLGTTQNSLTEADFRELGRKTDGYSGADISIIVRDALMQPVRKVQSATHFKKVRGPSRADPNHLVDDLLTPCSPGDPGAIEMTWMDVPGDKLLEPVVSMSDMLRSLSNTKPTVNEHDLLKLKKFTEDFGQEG
UniProt A3KMH1: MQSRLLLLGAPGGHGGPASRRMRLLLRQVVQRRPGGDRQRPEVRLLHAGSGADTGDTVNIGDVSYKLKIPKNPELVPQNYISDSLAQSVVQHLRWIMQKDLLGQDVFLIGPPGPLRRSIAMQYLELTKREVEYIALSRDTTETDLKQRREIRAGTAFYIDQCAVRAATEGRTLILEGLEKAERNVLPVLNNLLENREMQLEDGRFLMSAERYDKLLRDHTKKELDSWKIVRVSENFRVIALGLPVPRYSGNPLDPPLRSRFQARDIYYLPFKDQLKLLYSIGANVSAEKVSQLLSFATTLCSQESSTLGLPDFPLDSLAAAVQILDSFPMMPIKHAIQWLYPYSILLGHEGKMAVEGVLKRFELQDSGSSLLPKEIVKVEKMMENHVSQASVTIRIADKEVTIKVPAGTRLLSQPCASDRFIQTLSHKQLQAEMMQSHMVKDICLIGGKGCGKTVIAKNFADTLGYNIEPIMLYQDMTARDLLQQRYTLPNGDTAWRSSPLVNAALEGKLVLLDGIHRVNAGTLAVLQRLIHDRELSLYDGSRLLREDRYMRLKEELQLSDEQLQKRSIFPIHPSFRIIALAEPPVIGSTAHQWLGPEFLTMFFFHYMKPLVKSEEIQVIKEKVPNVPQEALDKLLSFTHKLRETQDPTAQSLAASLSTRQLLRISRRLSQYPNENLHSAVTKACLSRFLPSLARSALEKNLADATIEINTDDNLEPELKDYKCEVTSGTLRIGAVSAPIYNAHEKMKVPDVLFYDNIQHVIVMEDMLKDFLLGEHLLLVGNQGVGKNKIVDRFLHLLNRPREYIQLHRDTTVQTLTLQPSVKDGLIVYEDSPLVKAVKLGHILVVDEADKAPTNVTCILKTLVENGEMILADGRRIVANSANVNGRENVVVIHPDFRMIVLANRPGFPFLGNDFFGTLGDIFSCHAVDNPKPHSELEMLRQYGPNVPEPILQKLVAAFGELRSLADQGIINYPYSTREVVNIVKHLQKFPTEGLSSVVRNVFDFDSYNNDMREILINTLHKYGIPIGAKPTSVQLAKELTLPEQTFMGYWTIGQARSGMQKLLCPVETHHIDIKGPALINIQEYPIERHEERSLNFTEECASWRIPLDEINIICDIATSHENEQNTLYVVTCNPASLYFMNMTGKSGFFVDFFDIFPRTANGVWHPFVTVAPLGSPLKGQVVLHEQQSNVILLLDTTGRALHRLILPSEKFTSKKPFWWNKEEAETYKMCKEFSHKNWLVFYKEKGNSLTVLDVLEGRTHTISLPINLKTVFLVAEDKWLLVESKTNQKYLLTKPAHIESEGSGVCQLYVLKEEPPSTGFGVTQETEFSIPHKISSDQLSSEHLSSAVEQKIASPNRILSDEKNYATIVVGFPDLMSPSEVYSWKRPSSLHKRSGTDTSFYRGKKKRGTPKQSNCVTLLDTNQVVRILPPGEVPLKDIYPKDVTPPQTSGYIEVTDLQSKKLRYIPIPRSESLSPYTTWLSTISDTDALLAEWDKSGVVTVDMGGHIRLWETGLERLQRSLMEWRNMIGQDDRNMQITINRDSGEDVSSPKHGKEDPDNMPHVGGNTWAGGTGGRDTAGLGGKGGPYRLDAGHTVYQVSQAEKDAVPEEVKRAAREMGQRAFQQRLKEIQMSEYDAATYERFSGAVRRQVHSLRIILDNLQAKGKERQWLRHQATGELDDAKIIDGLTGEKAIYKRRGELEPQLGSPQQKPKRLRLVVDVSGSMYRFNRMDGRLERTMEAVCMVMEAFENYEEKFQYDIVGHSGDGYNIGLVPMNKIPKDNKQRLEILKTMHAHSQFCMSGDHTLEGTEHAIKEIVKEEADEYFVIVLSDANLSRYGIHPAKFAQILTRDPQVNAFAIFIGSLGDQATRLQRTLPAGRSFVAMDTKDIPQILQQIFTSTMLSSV
UniProt Q96AJ9: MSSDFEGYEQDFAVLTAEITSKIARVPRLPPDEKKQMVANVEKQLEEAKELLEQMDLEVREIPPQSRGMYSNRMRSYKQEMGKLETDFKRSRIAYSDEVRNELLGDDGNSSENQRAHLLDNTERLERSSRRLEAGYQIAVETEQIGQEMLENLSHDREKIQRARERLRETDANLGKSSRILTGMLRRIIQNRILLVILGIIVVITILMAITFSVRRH

Assays:
Assay in all cases: log2 fold change, soluble protein after heating vs DMSO (PISA); higher = thermal stabilisation; K562 lysate, 10 uM; active = over 0.2 and 3.5 SD of the protein, either way, in both replicates (recomputed)
erlotinib = compound: C#Cc1cccc(Nc2ncnc3cc(OCCOC)c(OCCOC)cc23)c1 [erlotinib]
Procedure, shortened: (§1)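 The values are log-two fold changes in thermal stability compared with solvent controls and come from duplicates. They were obtained by TMTpro 16plex LC-MS/MS, with channel sums equalised, on the supernatant after 21,000xg for 90 min. That supernatant came from crude K562 extract at 1 mg/mL protein treated with 10 μM compound for 30 min, heated for 3 min across 48°C-58°C, pooled and brought to 0.5% NP-40 at 4°C.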

[1] = compound: C/C(=N\NC(=O)C1=CC(=CC=C1)S(=O)(=O)N2CCOCC2)/C3=C(C=CC(=C3)Cl)O
Procedure, shortened: as §1

[2] = compound: C1=CC(=CC=C1C2=NC3=C(N2)C=C(C=C3)C(=O)N)OC4=CC=C(C=C4)Cl
Procedure, shortened: as §1

[3] = compound: C1=CC2=C(C=CC(=C2)/C=C\3/C(=O)NC(=NCC4=CC=CS4)S3)N=C1
Procedure, shortened: as §1

[4] = compound: C1=CC2=NC=CN=C2C=C1/C=C/3\C(=O)NC(=O)S3
Procedure, shortened: as §1

[5] = compound: C1=CC=C(C=C1)C2=NC(=C(N2)C3=CC=NC=C3)C4=CC(=C(C=C4)Cl)O
Procedure, shortened: as §1

[6] = compound: C1=CC=C2C(=C1)C3=NNC4=CC=CC(=C43)C2=O
Procedure, shortened: as §1

[7] = compound: C1CCN(C1)C(=O)NC2=CC=CC(=C2)NC3=NC=C(C(=N3)NCCC4=CN=CN4)Br
Procedure, shortened: as §1

[8] = compound: C1CN(CCC1(CC2=CC=C(C=C2)Cl)N)C3=NC=NC4=C3C=CN4
Procedure, shortened: as §1

IRAK-1-4 Inhibitor I = compound: C1COCCN1CCN2C3=CC=CC=C3N=C2NC(=O)C4=CC(=CC=C4)[N+](=O)[O-] [IRAK-1-4 Inhibitor I]
Procedure, shortened: as §1

Measured: log2 fold change

VTA1 (UniProt Q9NP79)
inactive: erlotinib 0 | [1] 0.003 | [2] 0.001 | [3] 0.003 | [4] 0.011 | [5] 0.023 | [6] 0.025 | [7] 0.026 | [8] -0.008 | IRAK-1-4 Inhibitor I -0.014

VPS4A (UniProt Q9UN37)
inactive: erlotinib 0.051 | [1] 0.005 | [2] -0.076 | [3] 0.043 | [4] -0.014 | [5] -0.017 | [6] -0.15 | [7] 0.029 | [8] -0.037 | IRAK-1-4 Inhibitor I -0.037

VPS37A (UniProt Q8NEZ2)
inactive: erlotinib 0.027 | [1] -0.07 | [2] 0.034 | [3] -0.023 | [4] -0.072 | [5] -0.011 | [6] -0.011 | [7] -0.041 | [8] 0.009 | IRAK-1-4 Inhibitor I -0.005

WARS2 (UniProt Q9UGM6)
inactive: erlotinib -0.034 | [1] -0.01 | [2] 0.038 | [3] 0.009 | [4] 0.03 | [5] 0.002 | [6] -0.041 | [7] -0.022 | [8] -0.007 | IRAK-1-4 Inhibitor I -0.011

WASHC2A (UniProt Q641Q2)
inactive: erlotinib 0 | [1] -0.006 | [2] 0.011 | [3] 0.009 | [4] -0.006 | [5] -0.006 | [6] -0.001 | [7] 0 | [8] 0.005 | IRAK-1-4 Inhibitor I -0.009

WDR74 (UniProt Q6RFH5)
inactive: erlotinib 0.025 | [1] 0.011 | [2] -0.016 | [3] -0.026 | [4] -0.015 | [5] -0.069 | [6] 0.019 | [7] -0.034 | [8] 0.063 | IRAK-1-4 Inhibitor I 0.033

VRK2 (UniProt Q86Y07)
inactive: erlotinib 0.04 | [1] 0.039 | [2] 0.113 | [3] -0.058 | [4] -0.056 | [5] 0 | [6] 0.064 | [7] 0.064 | [8] 0.196 | IRAK-1-4 Inhibitor I 0.049

VPS13C (UniProt Q709C8)
inactive: erlotinib -0.007 | [1] -0.003 | [2] 0.038 | [3] 0.008 | [4] 0.017 | [5] -0.013 | [6] -0.021 | [7] 0.042 | [8] -0.012 | IRAK-1-4 Inhibitor I 0.004

WDR92 (UniProt Q96MX6)
inactive: erlotinib -0.007 | [1] 0.049 | [2] -0.006 | [3] 0.017 | [4] -0.02 | [5] -0.025 | [6] -0.049 | [7] -0.002 | [8] -0.002 | IRAK-1-4 Inhibitor I 0.01

VSIR (UniProt Q9H7M9)
inactive: erlotinib -0.05 | [1] -0.048 | [2] 0.038 | [3] 0.097 | [4] -0.022 | [5] 0.054 | [6] -0.167 | [7] -0.023 | [8] -0.007 | IRAK-1-4 Inhibitor I 0.008

WAPL isoform 3 (UniProt Q7Z5K2)
inactive: erlotinib 0.009 | [1] -0.019 | [2] 0.004 | [3] 0.014 | [4] -0.014 | [5] 0.021 | [6] 0.005 | [7] -0.02 | [8] -0.03 | IRAK-1-4 Inhibitor I -0.002

WDR1 (UniProt O75083)
inactive: erlotinib -0.017 | [1] 0.05 | [2] 0 | [3] 0.008 | [4] 0.028 | [5] 0.005 | [6] 0.015 | [7] 0.001 | [8] -0.001 | IRAK-1-4 Inhibitor I -0.017

VPS28 (UniProt Q9UK41)
inactive: erlotinib 0.707 | [1] -0.039 | [2] 0.004 | [3] -0.005 | [4] 0.041 | [5] 0.028 | [6] -0.036 | [7] -0.006 | [8] -0.018 | IRAK-1-4 Inhibitor I -0.036

VPS13D (UniProt Q5THJ4)
inactive: erlotinib 0.051 | [1] 0.037 | [2] -0.043 | [3] -0.019 | [4] 0.031 | [5] -0.046 | [6] 0.006 | [7] -0.023 | [8] -0.026 | IRAK-1-4 Inhibitor I 0.063

WDR6 (UniProt Q9NNW5)
inactive: erlotinib 0.001 | [1] 0.01 | [2] 0.002 | [3] 0.026 | [4] -0.01 | [5] 0 | [6] -0.014 | [7] -0.02 | [8] 0.021 | IRAK-1-4 Inhibitor I -0.011

WASH2P (UniProt Q6VEQ5)
inactive: erlotinib 0.008 | [1] 0.045 | [2] -0.02 | [3] -0.026 | [4] 0.026 | [5] 0.019 | [6] 0.026 | [7] 0.001 | [8] -0.014 | IRAK-1-4 Inhibitor I -0.031

WDR20 isoform 7 (UniProt Q8TBZ3)
inactive: erlotinib -0.001 | [1] -0.105 | [2] 0.043 | [3] 0.04 | [4] -0.117 | [5] 0.094 | [6] -0.016 | [7] -0.05 | [8] 0.092 | IRAK-1-4 Inhibitor I 0.026

WRB (UniProt O00258)
inactive: erlotinib -0.043 | [1] 0.208 | [2] 0.027 | [3] 0.002 | [4] -0.009 | [5] -0.002 | [6] 0.049 | [7] 0.051 | [8] -0.064 | IRAK-1-4 Inhibitor I 0.101

XPA (UniProt P23025)
inactive: erlotinib -0.018 | [1] -0.027 | [2] 0.061 | [3] 0.013 | [4] -0.109 | [5] 0.051 | [6] -0.055 | [7] -0.027 | [8] 0.077 | IRAK-1-4 Inhibitor I -0.048

VKORC1 (UniProt Q9BQB6)
inactive: erlotinib 0.012 | [1] -0.053 | [2] -0.11 | [3] -0.038 | [4] -0.038 | [5] 0.016 | [6] 0.011 | [7] -0.015 | [8] 0.115 | IRAK-1-4 Inhibitor I -0.009

WDR46 (UniProt O15213)
inactive: erlotinib 0.028 | [1] -0.068 | [2] -0.079 | [3] 0.002 | [4] -0.002 | [5] -0.011 | [6] 0.051 | [7] 0.07 | [8] 0.018 | IRAK-1-4 Inhibitor I 0.011

VPS33B (UniProt Q9H267)
inactive: erlotinib 0.015 | [1] -0.021 | [2] 0.004 | [3] 0.023 | [4] -0.003 | [5] -0.01 | [6] 0.005 | [7] 0.006 | [8] -0.002 | IRAK-1-4 Inhibitor I -0.031

WDR91 (UniProt A4D1P6)
inactive: erlotinib 0.02 | [1] 0.04 | [2] -0.019 | [3] 0.038 | [4] -0.034 | [5] 0.002 | [6] 0.019 | [7] -0.011 | [8] -0.007 | IRAK-1-4 Inhibitor I -0.013

Two successive records from above:
WAPL isoform 3 (UniProt Q7Z5K2)
inactive: erlotinib 0.009 | [1] -0.019 | [2] 0.004 | [3] 0.014 | [4] -0.014 | [5] 0.021 | [6] 0.005 | [7] -0.02 | [8] -0.03 | IRAK-1-4 Inhibitor I -0.002

WDR1 (UniProt O75083)
inactive: erlotinib -0.017 | [1] 0.05 | [2] 0 | [3] 0.008 | [4] 0.028 | [5] 0.005 | [6] 0.015 | [7] 0.001 | [8] -0.001 | IRAK-1-4 Inhibitor I -0.017

The results go on:

WDR4 (UniProt P57081)
inactive: erlotinib 0.014 | [1] -0.002 | [2] 0.041 | [3] 0.002 | [4] 0.001 | [5] -0.007 | [6] -0.001 | [7] -0.018 | [8] 0.02 | IRAK-1-4 Inhibitor I -0.008

VPS26A (UniProt O75436)
inactive: erlotinib -0.014 | [1] -0.017 | [2] 0.008 | [3] -0.002 | [4] 0.001 | [5] -0.019 | [6] 0.004 | [7] -0.001 | [8] 0.035 | IRAK-1-4 Inhibitor I 0.005

WAC (UniProt Q9BTA9)
inactive: erlotinib 0.027 | [1] 0.004 | [2] 0.027 | [3] 0.092 | [4] -0.064 | [5] 0.008 | [6] -0.076 | [7] 0.051 | [8] 0.015 | IRAK-1-4 Inhibitor I -0.006

VPS4B (UniProt O75351)
inactive: erlotinib -0.008 | [1] -0.009 | [2] -0.048 | [3] -0.006 | [4] -0.007 | [5] 0 | [6] -0.068 | [7] 0.024 | [8] -0.026 | IRAK-1-4 Inhibitor I 0.006

VWA8 (UniProt A3KMH1)
inactive: erlotinib 0.005 | [1] -0.145 | [2] 0.039 | [3] -0.072 | [4] 0.168 | [5] -0.075 | [6] -0.121 | [7] -0.06 | [8] 0.096 | IRAK-1-4 Inhibitor I 0.103

VTI1A (UniProt Q96AJ9)
inactive: erlotinib -0.009 | [1] -0.003 | [2] -0.029 | [3] 0.045 | [4] -0.043 | [5] -0.026 | [6] 0.008 | [7] -0.001 | [8] 0.025 | IRAK-1-4 Inhibitor I 0.028
